These are yes or no findings as the source states them, for the method shown. Binding seen in cells or lysates may run through a third protein. Some results given as binding are weak or reduced against the parent protein; the word gives no strength.
Biological target: pyruvate kinase M2 (PKM2), endogenous protein of 293T cells (human) (UniProt P14618)
Experiment: anti-FLAG pull-down from 293T lysate, SDS-PAGE with silver stain

Amino acid sequences for entries named in this document (tags omitted). A change or cut given only in a name is not applied to a line headed by its entry.
UniProt P14618: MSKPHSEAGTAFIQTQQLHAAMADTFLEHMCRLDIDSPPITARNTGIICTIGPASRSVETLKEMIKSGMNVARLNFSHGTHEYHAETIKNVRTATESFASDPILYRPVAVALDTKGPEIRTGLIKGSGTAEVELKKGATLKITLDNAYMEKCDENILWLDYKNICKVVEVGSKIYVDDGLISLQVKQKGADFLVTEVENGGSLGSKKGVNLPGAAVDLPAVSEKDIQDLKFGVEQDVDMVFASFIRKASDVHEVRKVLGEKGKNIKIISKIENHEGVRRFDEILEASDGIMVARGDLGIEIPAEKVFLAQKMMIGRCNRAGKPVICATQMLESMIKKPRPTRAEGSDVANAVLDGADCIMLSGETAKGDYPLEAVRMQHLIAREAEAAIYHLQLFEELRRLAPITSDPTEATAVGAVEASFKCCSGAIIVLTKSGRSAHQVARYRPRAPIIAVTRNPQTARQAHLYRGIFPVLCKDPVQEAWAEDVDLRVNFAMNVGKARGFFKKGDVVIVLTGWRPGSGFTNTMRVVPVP

binding: binds
B1: intrabody clone IB12 (scFv)
scFv: MAQVQLVQSGGGLVKPGGSLRLSCTASGFTFSTYWMHWFRQAPGKGLLWVSRINPDGSATIYADSVKGRFTISRDNAKNSLYLQMNSLRDEDTAVYYCARGHPLSGYPGYFDYWGQGTLVTVSSGGGGSGGGGSGVADPRLCSLSRLPSLHLLEHQQSHLHFTSGINVGAYRIYWYQQKPGSPPQFLLRYKSDSDKQQGSGVPSRFSGSRDASANAGILLISGLRSEDEADYYCAIWHSSAWVFGGGTKLTVLWGSGLASVDYKDDDDK
